PubChem BioAssay AID1259308, NCATS – 2017

Screen: 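Knock-downs that increase output of a recombinant reporter protein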 (primary screen)
Cells: human HEK293 embryonic kidney cells stably expressing firefly luciferase (HEK-CMV-Luc2-Hygro)
Reagent: single siRNA against human genes, 0.8 pmol siRNA per well
Duration: 72 h
Measurement: 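Reporter luminescence and viable-cell signal on separate replicate plates, given as percent of non-targeting control and median/MAD z-scores, plus per-cell luciferase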
Reading the numbers: total luciferase, z-score: higher = more reporter protein produced
Rule for the call: 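An siRNA counts as active if its total luciferase robust z-score exceeds 3; genes with two or more such siRNAs out of three were retested with fresh siRNAs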
Calls: active = raised luciferase; inactive = no rise
The deposit covers about 59,000 reagents; shown is a part drawn at random. Of all reagents, about 1,510 (2.6%) got an active call. 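Calls use total luciferase alone and ignore viability, so some active siRNAs may act by altering cell number.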 Unmarked entries are inactive. Reagents against one gene are numbered here. Further read-outs or replicates are left out here.

gene	siRNA no.	total luciferase, z-score
ESS2	1	0.113
ESS2	2	0.135
ESS2	3	4.83 (active)
CLDN18	1	-1.3
CLDN18	2	2.04
CLDN18	3	0.854
IL2RA	1	3.39 (active)
IL2RA	2	0.982
IL2RA	3	0.259
JOSD1	1	1.74
JOSD1	2	0.1
JOSD1	3	0.592
HINFP	1	6.59 (active)
HINFP	2	-1.78
HINFP	3	0.0383
ZIC1	1	2.11
ZIC1	2	0.61
ZIC1	3	-2.05
LNX1	1	0.239
LNX1	2	1.17
LNX1	3	-0.386
HMGB3P24	1	0.136
HMGB3P24	2	-1.6
HMGB3P24	3	1.37
NTNG2	1	-2.41
NTNG2	2	-0.352
NTNG2	3	1.12
MTHFD1L	1	-0.958
MTHFD1L	2	-0.103
MTHFD1L	3	1.75
ESPNP	1	1.81
ESPNP	2	-0.449
ESPNP	3	-3.54
RPF1	1	-0.549
RPF1	2	-1.83
RPF1	3	-0.664
HELT	1	0.878
HELT	2	0.273
HELT	3	0.134
MAN2B1	1	1.61
MAN2B1	2	-0.508
MAN2B1	3	1.5
MXRA5	1	-1.36
MXRA5	2	-0.828
MXRA5	3	-0.729
GLCCI1	1	-0.545
GLCCI1	2	1.07
GLCCI1	3	-1.01
STARD5	1	-0.321
STARD5	2	-1.64
STARD5	3	-1.47
CACNB3	1	0.22
CACNB3	2	-0.0723
CACNB3	3	-1.29
TLCD5	1	-0.436
TLCD5	2	-0.0492
TLCD5	3	-2.13
